No constants are given. Whether binding was seen depends on the method and setting. In cells and extracts the contact can be indirect. Some binding calls cover weakened binding; strength is not graded here. For some of these results: Sequences can lack the tags named with a protein.
Experiments:
[1] = molecular target: HA-tagged CUL4B, wild type (endogenously tagged) (human (endogenous in HeLa Kyoto)) (UniProt Q13620); assay: co-IP
[2] = molecular target: Strep-tagged CUL4B (Sf9 co-expression) (human) (UniProt Q13620); assay: pull-down

The chains behind the UniProt entries cited, without tags or fusion partners.
UniProt Q13620: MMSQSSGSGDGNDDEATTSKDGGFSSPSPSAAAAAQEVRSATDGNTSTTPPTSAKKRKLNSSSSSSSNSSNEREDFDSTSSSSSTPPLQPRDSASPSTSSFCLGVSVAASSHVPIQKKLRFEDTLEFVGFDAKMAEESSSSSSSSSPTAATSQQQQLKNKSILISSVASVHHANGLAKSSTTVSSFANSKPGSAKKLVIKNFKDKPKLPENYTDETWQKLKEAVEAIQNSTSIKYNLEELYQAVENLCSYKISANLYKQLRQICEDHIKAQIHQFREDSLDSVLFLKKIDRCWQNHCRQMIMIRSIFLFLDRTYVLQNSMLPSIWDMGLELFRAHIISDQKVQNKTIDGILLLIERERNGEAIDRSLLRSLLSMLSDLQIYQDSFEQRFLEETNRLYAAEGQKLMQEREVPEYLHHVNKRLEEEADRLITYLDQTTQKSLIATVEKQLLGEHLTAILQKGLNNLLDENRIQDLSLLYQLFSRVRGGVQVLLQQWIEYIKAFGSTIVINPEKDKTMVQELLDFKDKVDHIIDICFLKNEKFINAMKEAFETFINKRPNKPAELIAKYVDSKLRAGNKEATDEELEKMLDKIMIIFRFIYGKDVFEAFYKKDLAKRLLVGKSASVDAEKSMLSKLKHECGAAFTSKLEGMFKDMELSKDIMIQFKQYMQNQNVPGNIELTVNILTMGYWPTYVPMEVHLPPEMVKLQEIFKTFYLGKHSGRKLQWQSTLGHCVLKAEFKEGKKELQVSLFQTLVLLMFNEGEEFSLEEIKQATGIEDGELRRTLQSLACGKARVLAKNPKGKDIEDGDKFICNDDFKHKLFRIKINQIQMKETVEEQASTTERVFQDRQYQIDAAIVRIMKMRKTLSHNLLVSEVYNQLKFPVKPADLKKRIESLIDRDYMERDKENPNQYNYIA

B1: LIS1 (endogenous) (protein, UniProt P43034 1-410)
chain: MVLSQRQRDELNRAIADYLRSNGYEEAYSVFKKEAELDVNEELDKKYAGLLEKKWTSVIRLQKKVMELESKLNEAKEEFTSGGPLGQKRDPKEWIPRPPEKYALSGHRSPVTRVIFHPVFSVMVSASEDATIKVWDYETGDFERTLKGHTDSVQDISFDHSGKLLASCSADMTIKLWDFQGFECIRTMHGHDHNVSSVAIMPNGDHIVSASRDKTIKMWEVQTGYCVKTFTGHREWVRMVRPNQDGTLIASCSNDQTVRVWVVATKECKAELREHEHVVECISWAPESSYSSISEATGSETKKSGKPGPFLLSGSRDKTIKMWDVSTGMCLMTLVGHDNWVRGVLFHSGGKFILSCADDKTLRVWDYKNKRCMKTLNAHEHFVTSLDFHKTAPYVVTGSVDQTVKVWECR
In the case of B1, the binding [1] is reported as “binds”.

B2: WDR1 (endogenous) (protein, UniProt O75083 1-606)
chain: MPYEIKKVFASLPQVERGVSKIIGGDPKGNNFLYTNGKCVILRNIDNPALADIYTEHAHQVVVAKYAPSGFYIASGDVSGKLRIWDTTQKEHLLKYEYQPFAGKIKDIAWTEDSKRIAVVGEGREKFGAVFLWDSGSSVGEITGHNKVINSVDIKQSRPYRLATGSDDNCAAFFEGPPFKFKFTIGDHSRFVNCVRFSPDGNRFATASADGQIYIYDGKTGEKVCALGGSKAHDGGIYAISWSPDSTHLLSASGDKTSKIWDVSVNSVVSTFPMGSTVLDQQLGCLWQKDHLLSVSLSGYINYLDRNNPSKPLHVIKGHSKSIQCLTVHKNGGKSYIYSGSHDGHINYWDSETGENDSFAGKGHTNQVSRMTVDESGQLISCSMDDTVRYTSLMLRDYSGQGVVKLDVQPKCVAVGPGGYAVVVCIGQIVLLKDQRKCFSIDNPGYEPEVVAVHPGGDTVAIGGVDGNVRLYSILGTTLKDEGKLLEAKGPVTDVAYSHDGAFLAVCDASKVVTVFSVADGYSENNVFYGHHAKIVCLAWSPDNEHFASGGMDMMVYVWTLSDPETRVKIQDAHRLHHVSSLAWLDEHTLVTTSHDASVKEWTITY
For B2, the binding [1] was “binds”.

B3: FLAG-tagged LIS1 (Sf9 co-expression) (protein, UniProt P43034 1-410)
chain: MVLSQRQRDELNRAIADYLRSNGYEEAYSVFKKEAELDVNEELDKKYAGLLEKKWTSVIRLQKKVMELESKLNEAKEEFTSGGPLGQKRDPKEWIPRPPEKYALSGHRSPVTRVIFHPVFSVMVSASEDATIKVWDYETGDFERTLKGHTDSVQDISFDHSGKLLASCSADMTIKLWDFQGFECIRTMHGHDHNVSSVAIMPNGDHIVSASRDKTIKMWEVQTGYCVKTFTGHREWVRMVRPNQDGTLIASCSNDQTVRVWVVATKECKAELREHEHVVECISWAPESSYSSISEATGSETKKSGKPGPFLLSGSRDKTIKMWDVSTGMCLMTLVGHDNWVRGVLFHSGGKFILSCADDKTLRVWDYKNKRCMKTLNAHEHFVTSLDFHKTAPYVVTGSVDQTVKVWECR
With B3 the binding [2] was “binds”.

B4: FLAG-tagged WDR1 (Sf9 co-expression) (protein, UniProt O75083 1-606)
chain: MPYEIKKVFASLPQVERGVSKIIGGDPKGNNFLYTNGKCVILRNIDNPALADIYTEHAHQVVVAKYAPSGFYIASGDVSGKLRIWDTTQKEHLLKYEYQPFAGKIKDIAWTEDSKRIAVVGEGREKFGAVFLWDSGSSVGEITGHNKVINSVDIKQSRPYRLATGSDDNCAAFFEGPPFKFKFTIGDHSRFVNCVRFSPDGNRFATASADGQIYIYDGKTGEKVCALGGSKAHDGGIYAISWSPDSTHLLSASGDKTSKIWDVSVNSVVSTFPMGSTVLDQQLGCLWQKDHLLSVSLSGYINYLDRNNPSKPLHVIKGHSKSIQCLTVHKNGGKSYIYSGSHDGHINYWDSETGENDSFAGKGHTNQVSRMTVDESGQLISCSMDDTVRYTSLMLRDYSGQGVVKLDVQPKCVAVGPGGYAVVVCIGQIVLLKDQRKCFSIDNPGYEPEVVAVHPGGDTVAIGGVDGNVRLYSILGTTLKDEGKLLEAKGPVTDVAYSHDGAFLAVCDASKVVTVFSVADGYSENNVFYGHHAKIVCLAWSPDNEHFASGGMDMMVYVWTLSDPETRVKIQDAHRLHHVSSLAWLDEHTLVTTSHDASVKEWTITY
B4 was tested, and the binding [2] was “binds”.
